Results published in PubChem BioAssay AID2685 (National Center for Advancing Translational Sciences (NCATS), 2010).
Some of the results follow. Shown are side measurements of this screen, not its main read-out; they come without a call. Compounds called inactive in the main read-out are mostly missing here. The note in brackets gives the kind of curve behind each potency; many fits are weak.

Test: qHTS Assay for Lipid Storage Modulators in Drosophila S3 Cells;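 on cell number change: cells counted by Cell Tracker Red CMTPX staining in the red channel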
Settings: BODIPY lipid droplet fluorescence, 18-24 h; for cell number change: measured here: cell count max response, cells fed with added oleic acid
Summary of the method: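 Drosophila S3 cells got compounds at several concentrations plus oleic acid (400 uM solution). Laser-scanning cytometry with 488 nm excitation read lipid droplets at 500-530 nm and cells at 575-640 nm. Percent activity was relative to 20 uM Triacsin C.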

[1] = measured here: lipid fluorescence (Fed channel) AC50, cells fed with added oleic acid
[2] = measured here: cell number channel AC50, cells fed with added oleic acid

SMILES | cell number change [%] | AC50 [1] | AC50 [2]
Cc1c(C(c2ccc(Br)cc2)c2c(C)n(C)n(-c3ccccc3)c2=O)c(=O)n(-c2ccccc2)n1C | -8.39 | 3.26 µM [falling, single point] | –
Cc1ccccc1OCC(=O)OC1CCN(C)CC1 | -14.5 | 6.51 µM [falling, single point] | –
Cc1ccccc1NC(=O)N1CCNC(=O)C1CC(=O)Nc1cc(Cl)ccc1Cl (configuration not stated) | 7.94 | 0.326 µM [rising, partial curve, poor fit] | –
COc1ccccc1-n1c(SCC(N)=O)nc2c(c1=O)SCC2 | 27.2 | 0.146 µM [rising, full curve] | –
CCN1CCN(CCNC(=O)C2CCN(Cc3nc(-c4ccc(Cl)cc4)oc3C)CC2)CC1 | 2.98 | 20.6 µM [falling, partial curve] | –
O=S(=O)(Nc1ccn(-c2ccccc2)n1)c1ccc(Br)cc1 | -14.9 | 2.06 µM [rising, full curve, poor fit] | –
O=C(C1CC(=O)N(C2CCCCC2)C1)N1CCN(c2cccc(C(F)(F)F)c2)CC1 (configuration not stated) | -6.35 | 29.1 µM [falling, single point] | –
COc1ccccc1OCc1nc(C#N)c(N2CC(C)CC(C)C2)o1 (configuration not stated) | -1.32 | – | –
Cc1ccc(NS(=O)(=O)c2cc(C(=O)NCCCN(C)C)ccc2Cl)cc1Cl | – | 0.103 µM [falling, full curve, poor fit] | –
Cc1ccccc1N/C=C/C(=C(C#N)C#N)N(C)C | 11.1 | – | 0.731 µM [falling, full curve, poor fit]
COc1ccc(OC)c(C(=O)c2ccc(C(=O)Nc3ccc4ccccc4c3)cc2)c1 | 17.2 | – | –
CCC1CCCCN1S(=O)(=O)c1ccc(C(=O)Nc2nnc(C3CC3)o2)cc1 (configuration not stated) | 13.8 | – | –
Fc1ccc(-[n+]2nc(Nc3ccccc3)sc2-c2c3ccccc3cc3ccccc23)cc1 | -60.5 | – | 18.4 µM [falling, partial curve]
Cc1ccc(SCC(=O)NCCCN2CCOCC2)cc1 | -118 | 3.26 µM [falling, partial curve] | 0.13 µM [falling, full curve, poor fit]
COc1ccc(C)cc1NC(=O)CCS(=O)(=O)c1cc2c(cc1Cl)NC(=O)CO2 | -38.2 | 1.84 µM [falling, partial curve] | 0.366 µM [falling, full curve]
CCCCn1c(N)c(N(C(=O)CSc2nnc(C)n2-c2ccccc2)C2CCCC2)c(=O)[nH]c1=O | -3.48 | – | –
CCC(=O)Nc1c(-c2ccc(OC)cc2)c(=O)c2ccccc2n1C | -10.3 | 16.4 µM [falling, single point] | –
OCCC#Cc1ccc(CN2CCN(CCc3ccccc3)C(CCO)C2)cc1 (configuration not stated) | 26.7 | – | –
O=C1c2cc3ccccc3c(-c3ccccc3)c2C(=O)N1c1ccccn1 | – | 1.84 µM [falling, partial curve] | –
Cc1nc2ccc(S(=O)(=O)NCC(=O)NC(C)c3ccccc3)cc2s1 (configuration not stated) | 4.1 | 0.146 µM [rising, single point] | –
Cc1nnc2n(-c3ccccc3)c(=O)c3c4c(sc3n12)CCCC4 | – | 0.103 µM [rising, full curve, poor fit] | –

SMILES | cell number change [%] | AC50 [1] | AC50 [2]
O=C(O)c1cccc(-n2cccc2/C=C2/SC(=O)N(CC(=O)N3CCCC3)C2=O)c1 | -6.67 | 29.1 µM [falling, single point] | –
O=C(N/N=C/c1cc(Br)c(O)c(Br)c1)c1cccnc1 | -26.1 | – | –
COc1ccc(-c2cc(C(=O)NCC(c3ccccc3)N(C)C)c3ccccc3n2)cc1OC (configuration not stated) | 15.6 | 1.3 µM [rising, partial curve, poor fit] | –
O=C(COC(=O)/C=C/c1cccc(Br)c1)Nc1cccc(S(=O)(=O)NC2=NCCC2)c1 | -31.8 | 7.31 µM [falling, full curve] | 5.8 µM [falling, full curve, poor fit]
Cc1ccc(Cl)c(OCC(=O)Nc2ccccc2C(=O)NC2CC2)c1 | – | 2.06 µM [falling, partial curve] | –
CC(C)CCNC(=O)NC(=O)COC(=O)/C=C/c1cnc2ccccc2n1 | -14.9 | 29.1 µM [falling, single point] | 0.82 µM [falling, full curve, poor fit]
O=C(/C=C/c1cccc([N+](=O)[O-])c1)N1CCN(S(=O)(=O)c2cccs2)CC1 | -5.46 | – | –
CS(=O)(=O)c1ccc(Cl)c(NC(=O)c2cc(S(=O)(=O)N3CCOCC3)ccc2N2CCCC2)c1 | -7.53 | 0.00461 µM [falling, full curve, poor fit] | –
COc1ccc(C(=O)OCC(=O)Nc2ccc(N3CCOCC3)cc2)cc1OC | -9.14 | 29.1 µM [falling, single point] | –
O=C(Nc1nccs1)C1CCCN1S(=O)(=O)c1cccc2cccnc12 (configuration not stated) | 33.1 | 3.66 µM [rising, single point] | 5.8 µM [rising, full curve, poor fit]
Cc1nnc2c(Oc3ccccc3)nc3ccccc3n12 | 36.8 | 29.1 µM [rising, single point] | 20.6 µM [rising, single point]
COc1ccc(-n2ncc3c(N4CCc5ccccc54)ncnc32)cc1 | -1.18 | 0.82 µM [rising, full curve] | –
Nc1cc(=O)[nH]c(SCC(=O)NCC2CCCO2)n1 (configuration not stated) | 0.905 | – | –
CCOC(=O)N1CCN(C(=O)c2cccc(OC)c2O)CC1 | 56.5 | – | 20.6 µM [rising, single point]
CCCCNC(=O)CCCn1c(=O)[nH]c2ccc(Br)cc2c1=O | -1.88 | 1.84 µM [rising, partial curve, poor fit] | –
O=C(NCc1ccc(F)cc1)C(c1ccc(Cl)cc1)N(C(=O)c1csnn1)C1CC1 (configuration not stated) | 0.855 | – | –
CCOc1ccc(-c2ncncc2-c2ccc(OC)c(OC)c2)c(O)c1 | 15.7 | 4.11 µM [rising, full curve, poor fit] | –
COc1cc(OC)c(/C=N/NC(=O)c2ccc(NC(C)=O)cc2)cc1Br | 22.4 | 29.1 µM [rising, single point] | –
COc1ccccc1C(=O)Nc1ccc2nc(SCC(=O)N(C)C)sc2c1 | 6.67 | 0.651 µM [rising, single point] | –
O=C(Nc1ccc(Cl)cc1)N1CCSc2ccccc21 | – | – | 2.31 µM [falling, partial curve]
COc1ccc(-n2nnnc2SCC(=O)Nc2ccc3c(c2)OCCO3)cc1OC | -26.4 | 1.84 µM [rising, full curve] | –

Fetched by structure from the list above:
SMILES | cell number change [%] | AC50 [1] | AC50 [2]
COc1ccc(-n2ncc3c(N4CCc5ccccc54)ncnc32)cc1 | -1.18 | 0.82 µM [rising, full curve] | –
CCOc1ccc(-c2ncncc2-c2ccc(OC)c(OC)c2)c(O)c1 | 15.7 | 4.11 µM [rising, full curve, poor fit] | –
Nc1cc(=O)[nH]c(SCC(=O)NCC2CCCO2)n1 (configuration not stated) | 0.905 | – | –

(more compounds)

SMILES | cell number change [%] | AC50 [1] | AC50 [2]
CCOC(=O)c1c(C)nc(C)c(C(=O)OCC)c1-c1cccnc1 | 24.7 | 0.92 µM [rising, full curve, poor fit] | –
COC(=O)C1=C(C)OC(N)=C(C#N)C1c1cc2cccc(C)c2nc1Cl (configuration not stated) | – | 1.16 µM [rising, single point] | –
Cc1ccc(C(=O)N/C(=C\c2cccs2)C(=O)NCCCN2CCOCC2)cc1 | -22.2 | 0.13 µM [rising, full curve, poor fit] | 0.0058 µM [falling, full curve, poor fit]
CC(NC(=O)CN1CCC(C(N)=O)CC1)c1ccccc1 (configuration not stated) | -2.19 | – | –
COc1ccc(NC(C)=O)cc1NC(=O)CSc1nc2ncccc2[nH]1 | -6.78 | – | –
COc1ccc(OCC(=O)OCC(=O)NCc2ccco2)cc1 | -38.1 | 1.3 µM [falling, full curve] | 1.16 µM [falling, full curve]
CN(C)S(=O)(=O)c1cccc(NC(=S)N/N=C/c2ccc(O)c(O)c2O)c1 | -15.2 | – | –
COCc1ccc(C(=O)N2CCCC(C(=O)c3cccc(C(F)(F)F)c3)C2)o1 (configuration not stated) | – | 9.2 µM [falling, partial curve, poor fit] | –
CS(=O)(=O)Nc1cccc(C2=NN(C(=O)c3ccccc3Cl)C(c3ccccc3O)C2)c1 (configuration not stated) | 18.8 | 1.3 µM [rising, full curve] | –
O=C(CCc1ccccc1)NCCc1ccc(F)cc1 | -18.7 | 0.58 µM [rising, single point] | –
CCC[C@H]1CCCC/C=C\CCCC(=O)OCCN1C(=O)OC(C)(C)C | -34.3 | 0.13 µM [falling, full curve] | 9.2 µM [falling, partial curve]
CC(C)OCCCNC(=O)CNC(=O)c1ccc(Cl)c(Cl)c1 | – | 0.00517 µM [rising, full curve, poor fit] | –
CCN(CCO)Cc1cc(=O)oc2cc3c(cc12)CCC3 | -40.9 | 8.2 µM [falling, partial curve, poor fit] | 14.6 µM [falling, partial curve]
CCCC(=O)c1cc(F)c(N2CCN(S(=O)(=O)c3ccccc3)CC2)cc1C | -13 | 8.2 µM [rising, partial curve] | –
CCOC(=O)c1sc(NC(=O)c2c(OC)cccc2OC)nc1C | 12.6 | 7.31 µM [rising, partial curve] | –
COc1ccc(CCN(C)C(=O)CN2C(=O)c3ccccc3S2(=O)=O)cc1OC | 1.95 | 0.0259 µM [rising, full curve, poor fit] | –
CCCCNC(=O)c1ccccc1Cl | 1.37 | – | –
N/C(Cc1ccc(Cl)cc1)=N\OC(=O)Cc1ccc([N+](=O)[O-])cc1 | 22 | 13 µM [rising, partial curve] | 1.03 µM [rising, single point]
Cc1ccc2cccc(N=Cc3c(C)[nH]n(-c4ccccc4)c3=O)c2n1 | -13.3 | 8.2 µM [falling, single point] | –

3 compounds out of the list, sorted by length of the SMILES, ascending.
SMILES | cell number change [%] | AC50 [1] | AC50 [2]
CCN(CCO)Cc1cc(=O)oc2cc3c(cc12)CCC3 | -40.9 | 8.2 µM [falling, partial curve, poor fit] | 14.6 µM [falling, partial curve]
CC(NC(=O)CN1CCC(C(N)=O)CC1)c1ccccc1 (configuration not stated) | -2.19 | – | –
Cc1ccc2cccc(N=Cc3c(C)[nH]n(-c4ccccc4)c3=O)c2n1 | -13.3 | 8.2 µM [falling, single point] | –
